We go through two sequences from article PMC7737755.

For at least one entry, the source does not settle the construct or the ends of the probe. At least one result comes from cells or an extract, where the contact may be indirect. For some assays here: A negative result means that nothing was seen under these conditions.

In series [1] the test system is C/EBPβ. Description: EMSA. To be noted: 2 ug nuclear extract; LightShift Chemiluminescent EMSA kit (Pierce 20148), manufacturer's protocol, 2 ug nuclear extract per reaction; protein in a lysate after overexpression; label: biotin end label. (In EMSA bound probe runs differently from free probe, usually more slowly.)
The subject of series [2] is C/EBPβ. Put plainly: EMSA, supershift. The settings on record: 2 ug nuclear extract, supershifted by C/EBPβ antibody; LightShift Chemiluminescent EMSA kit (Pierce 20148), manufacturer's protocol, 2 ug nuclear extract per reaction; protein in a lysate after overexpression; label: biotin end label.

As for “TCAATTCAAGGAAGGCAG (double strand) [Mut C/EBP probe]”, in the series on C/EBPβ [1], the binding result was “no binding”. Consider “TCAATTCTTACTCCACAG (double strand) [WT C/EBP probe (DLEU2 / pri-mir15a/mir16-1 promoter)]”, for which, in the series with C/EBPβ [2], the binding result is “binds”.
